According to paper PMC3307728:

Key:
DEAF1-FLAG (human) = target: T1, DEAF1-FLAG (human) (UniProt O75398); test: EMSA; conditions: with Ku70/FLAG-Ku80 present, no apparent effect, no supershift; EMSA: 100 mM KCl, 50 mM Tris pH 7.5, 1 mM DTT, 25 °C, 30 min protein preincubation then 30 min with 32P probe; 4% native gel; recombinant protein; residues 1-565; label: 32P in EMSA
T1 sequence (looked up): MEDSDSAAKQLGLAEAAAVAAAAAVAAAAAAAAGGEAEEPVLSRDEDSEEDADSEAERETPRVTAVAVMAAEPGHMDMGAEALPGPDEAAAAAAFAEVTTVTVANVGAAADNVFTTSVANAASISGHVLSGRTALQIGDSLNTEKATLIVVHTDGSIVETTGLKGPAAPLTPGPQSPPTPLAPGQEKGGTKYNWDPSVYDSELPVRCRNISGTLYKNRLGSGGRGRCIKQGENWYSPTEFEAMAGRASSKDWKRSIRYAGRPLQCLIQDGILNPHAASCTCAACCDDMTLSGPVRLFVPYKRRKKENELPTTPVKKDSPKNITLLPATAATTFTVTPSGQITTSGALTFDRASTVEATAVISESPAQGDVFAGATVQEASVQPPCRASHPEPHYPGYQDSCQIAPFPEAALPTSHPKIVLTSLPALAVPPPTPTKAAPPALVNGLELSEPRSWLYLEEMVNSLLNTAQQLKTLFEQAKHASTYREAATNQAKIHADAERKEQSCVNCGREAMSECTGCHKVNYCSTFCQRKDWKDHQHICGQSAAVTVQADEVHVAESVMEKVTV

DEAF1 (167-565) (human) = target: T2, DEAF1 (167-565) (human) (UniProt O75398); test: competition with a labelled probe; conditions: indirect: modest decrease of pull-down by GST-Ku70(550-609); EMSA: 100 mM KCl, 50 mM Tris pH 7.5, 1 mM DTT, 25 °C, 30 min protein preincubation then 30 min with 32P probe; 4% native gel; protein translated in vitro; residues 167-565; label: 32P in EMSA
T2 sequence (looked up): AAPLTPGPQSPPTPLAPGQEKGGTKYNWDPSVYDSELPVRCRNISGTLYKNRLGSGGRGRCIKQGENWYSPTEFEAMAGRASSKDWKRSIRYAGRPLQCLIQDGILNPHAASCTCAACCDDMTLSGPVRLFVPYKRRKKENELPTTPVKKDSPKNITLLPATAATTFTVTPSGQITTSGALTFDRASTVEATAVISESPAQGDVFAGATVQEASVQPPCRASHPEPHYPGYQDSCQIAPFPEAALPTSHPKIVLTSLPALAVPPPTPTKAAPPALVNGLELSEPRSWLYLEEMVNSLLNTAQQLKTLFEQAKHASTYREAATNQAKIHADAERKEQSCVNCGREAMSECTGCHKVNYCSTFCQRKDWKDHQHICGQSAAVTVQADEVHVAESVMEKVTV

Sequence	binding result (DEAF1-FLAG (human))	binding result (DEAF1 (167-565) (human))
TTTTGCTTCCCACTTTTG (double strand) [Mut 2]	no binding	
TTCGGCTTCCCACTTCGG (double strand) [N52-69]		binds

For some assays here: A negative result means that nothing was seen under these conditions. At least one verdict rests on a figure or table, not on a statement of the authors. Where a protein sequence is shown, tags need not be part of it. For some assays here: Construct, isoform or probe ends are uncertain for at least one entry.
